Consider two molecules from PMC4915132, “Structural insights of ZIP4 extracellular domain critical for optimal zinc transport” (Nature Communications, 2016).

Assay [1] concerns the target pZIP4-ECD construct truncated at the end of α11 (residues 36-233) (Pteropus alecto) (UniProt L5KLU7). The assay is described as follows: SEC; purified protein on a size exclusion column; elution volume compared with standard proteins eluted on the same column; both purified. In general terms: SEC sorts molecules by how far they enter the pores of the column.
Assay [2] has as its target full-length human ZIP4, wild type, with C-terminal HA tag (human) (UniProt Q6P5W5). Description: cross-linking; disulfide through an engineered cysteine; full-length hZIP4-HA transiently expressed in HEK293T cells; 4-20% gradient SDS-PAGE with or without 5% β-mercaptoethanol, western blot with anti-HA. A general note: In western blotting, separated proteins are transferred to a membrane and probed.

Results are given in words; binding and its absence hold for the method and conditions named. For some assays here: In cells and extracts the contact can be indirect. Some binding calls cover weakened binding; strength is not graded here. For some assays here: Sequences can lack the tags named with a protein.

B1: pZIP4-ECD construct truncated at the end of α11 (residues 36-233) (domain or fragment, UniProt L5KLU7 36-233)
chain: SGQGALDRVALGGLLNTLAARVHCTSGPCGKCLSVDDLLALGRPEEPGHLARLSAAAALYLSDPEGTCEDIRAGRWASRADHLLALLEGPKALAPGLSRLLQRIQAQTTGQPSAGEACVDPPQLLREAGVAGAPGSPGPVLATLLEHVGRGSCFHTLPTPQYFVDFVFQQSHGNTPNISVAELAALMQRLGVGGVTET
In the case of B1, the binding entry in assay [1] is given as “no binding”.

B2: full-length human ZIP4, wild type, with C-terminal HA tag (protein, UniProt Q6P5W5-1 23-647)
chain: SPPAGLLSLLTSGQGALDQEALGGLLNTLADRVHCANGPCGKCLSVEDALGLGEPEGSGLPPGPVLEARYVARLSAAAVLYLSNPEGTCEDARAGLWASHADHLLALLESPKALTPGLSWLLQRMQARAAGQTPKMACVDIPQLLEEAVGAGAPGSAGGVLAALLDHVRSGSCFHALPSPQYFVDFVFQQHSSEVPMTLAELSALMQRLGVGREAHSDHSHRHRGASSRDPVPLISSSNSSSVWDTVCLSARDVMAAYGLSEQAGVTPEAWAQLSPALLQQQLSGACTSQSRPPVQDQLSQSERYLYGSLATLLICLCAVFGLLLLTCTGCRGVTHYILQTFLSLAVGAVTGDAVLHLTPKVLGLHTHSEEGLSPQPTWRLLAMLAGLYAFFLFENLFNLLLPRDPEDLEDGPCGHSSHSHGGHSHGVSLQLAPSELRQPKPPHEGSRADLVAEESPELLNPEPRRLSPELRLLPYMITLGDAVHNFADGLAVGAAFASSWKTGLATSLAVFCHELPHELGDFAALLHAGLSVRQALLLNLASALTAFAGLYVALAVGVSEESEAWILAVATGLFLYVALCDMLPAMLKVRDPRPWLLFLLHNVGLLGGWTVLLLLSLYEDDITF
Regarding B2, in assay [2], the binding entry is “binds”.
